Test results reported in patent US20230257715A1, “COMPOSITIONS AND METHODS FOR REGULATING ENTEROENDOCRINE CELL DIFFERENTIATION AND USES THEREOF” (The Children's Medical Center Corporation, priority 2020, published 2023).
For at least one compound, name, drawing or mass did not settle the structure. Some of these results come from one statement about several compounds together.

Tests used:
Format in all cases: cell-based
human duodenal enteroids [1] = assay: Hormone ELISA (5HT, GIP) of enteroid conditioned media; conditions: Fsk 10 μM 24 hours, day 14 vs day 13
Experimental: Hormone quantification for GIP (MilliporeSigma, […]), GLP-1, PYY, and serotonin (Eagle Biosciences/DLD Diagnostika GmbH, SER39-KO1) and were performed using kits and following manufacturer's protocols. For these experiments, organoids were grown in 48-well plates to aid in concentrating the hormone of interest. Conditioned media was taken on day 14 of differentiation. For GIP quantification, Diprotin A (Tocris, 6019, 100 μM), a dipeptidyl peptidase 4 inhibitor, was added daily to the media for the last two days of differentiation to prevent GIP and GLP-1 degradation. For hormone induction studies, forskolin (Fsk) (10 μM) was added to fresh media 24-hours prior to conditioned media being taken. As an additional control, differentiation media not exposed to cells was also evaluated. This value was then subtracted from each experimental sample.

human rectoids = assay: Hormone ELISA (GLP-1, PYY) of rectoid conditioned media; conditions: Fsk 10 μM 24 hours
human duodenal enteroids [2] = assay: qPCR analysis of enteroendocrine and lineage markers in enteroids; conditions: compared to enteroids grown in G2D12, FIG. 2.1A
Description: For differentiation, enteroids were passaged and grown in GM for two days, to allow for ISC expansion, after which the organoids were transitioned to tissue-specific differentiation media (DM) with additional small molecules added as described (TABLE 1A and TABLE 1B). Media was changed every two days, with Tubastatin A being removed after the second day of differentiation. Enteroids and rectoids were taken for analysis after 14 days.
Total RNA was purified from individual wells using TRI®Reagent (Sigma) and the Direct-zol™ RNA kit (Zymo Research), following the manufacturer's protocol. RNA concentration was determined using a NanoDrop™ 1000 spectrophotometer (Life Technologies). RNA was treated with DNAse (Promega) and reverse transcribed using the High-Capacity cDNA Reverse Transcription Kit (Life Technologies). Gene expression analysis was then performed by Real Time quantitative PCR (qPCR) using a QuantStudio 6 Flex thermocycler (Life Technologies). Taqman primers from Life Technologies (TABLE 3) were used. 18S transcripts were used as the internal control and data were expressed using the 2^−ddCt method with Ct limit of 40. Fold change, unless otherwise stated, was compared to total RNA derived from adult whole mucosal tissue biopsies.

human duodenal enteroids [3] = assay: EdU cell proliferation assay in enteroids; conditions: 7 days, two-hour pulse with 10 μM EdU

C=C[C@@]1(C)CC(=O)[C@]2(O)[C@@]3(C)[C@@H](O)CCC(C)(C)[C@@H]3[C@H](O)[C@H](OC(C)=O)[C@@]2(C)O1 [Fsk, forskolin]
secretion of 5-HT from differentiated enteroids on exposure to forskolin (human duodenal enteroids [1]; AS conditioned media): significantly increased | secretion of GIP from enteroids exposed to AS→RSP after exposure to Fsk (human duodenal enteroids [1]): significantly increased | GLP-1 and PYY secretion from G2D12 rectoids on stimulation with Fsk (human rectoids): increased

Oc1c2ccccc2c2c3c(cccc13)N=N2 [SP, SP600125]
EE lineage marker mRNA expression when added to DM (qPCR) (human duodenal enteroids [2]): induced expression of multiple EE lineage markers (CHGA, NEUROD1, NEUROG3, SST, and GIP)

CCn1cc(C(=O)O)c(=O)c2c(N)c(F)c(NC3CCCCC3)cc21 [AS, AS1842856]
EdU-positive (EdU+) cells (human duodenal enteroids [3]): 0.1%-0.5%
